Measurements reported in PubChem BioAssay AID1224828 (NIAID, 2016).
The whole screen tested about 17,000 reagents; this is a random part of them. 762 of them (4.5%) were called active. 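Active calls include both raised and lowered p65 entry, mostly lowered; wells with fewer than 50 cells lack a z-score.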 The raw values are shown without normalisation. Unmarked entries are inactive. Reagent sequences are not shown.

Test: 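Regulators linking TLR4 signalling to p65 nuclear translocation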 (primary screen)
Cells: mouse RAW264.7 G9 macrophage reporter cells (GFP-p65, Tnf promoter-mCherry)
Reagents: siRNA pool against mouse genes, 100 nM
Time to read-out: 2 days siRNA transfection, then 40 min LPS before fixation
Treatment: LPS (Salmonella minnesota R595) at 10 ng/ml
Measurement: 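Microscopy ratio of nuclear to perinuclear-ring GFP-p65 signal, scaled to the plate median; gene score is the average of two replicate robust z-scores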
Scale: p65 translocation robust z-score: higher = more nuclear NF-kappaB p65 after LPS than the plate median; nuclear/cytoplasmic p65 ratio: higher = more nuclear NF-kappaB p65
Active means: 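Active if robust z is above 3.3 (negative regulators) or below -1.56, the Tlr4 control median (positive regulators); activity score 50 or more; control wells not called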
Calls: active = hit (p65 shift raised or lowered); inactive = no clear change

| Target gene | p65 translocation robust z-score | nuclear/cytoplasmic p65 ratio, rep 1 | nuclear/cytoplasmic p65 ratio, rep 2 | low cell count flag |
| --- | --- | --- | --- | --- |
| Eri3 (GeneID 140546) | 0.64 | 1.45 | 1.3 | enough cells to score |
| Zfp384 (GeneID 269800) | -0.11 | 1.46 | 1.46 | enough cells to score |
| Dpep2 (GeneID 319446) | -0.05 | 1.47 | 1.38 | enough cells to score |
| Klk1b24 (GeneID 16617) | -0.57 | 1.41 | 1.41 | enough cells to score |
| Or4k5 (GeneID 258275) | 1.99 | 1.5 | 1.5 | enough cells to score |
| Or52b4 (GeneID 259083) | 0.42 | 1.31 | 1.32 | enough cells to score |
| Hadhb (GeneID 231086) | 0.12 | 1.45 | 1.39 | enough cells to score |
| Nat8f1 (GeneID 66116) | 0.21 | 1.57 | 1.87 | enough cells to score |
| Timp1 (GeneID 21857) | 1.7 | 1.75 | 1.77 | enough cells to score |
| Qser1 (GeneID 99003) | -1.41 | 1.39 | 1.42 | enough cells to score |
| Cplx3 (GeneID 235415) | 2.82 | 2.08 | 2.02 | enough cells to score |
| H2bc18 (GeneID 319189) | -1.74 (active) | 1.35 | 1.31 | enough cells to score |
| Fhl3 (GeneID 14201) | -1.7 (active) | 1.32 | 1.2 | enough cells to score |
| Ephx3 (GeneID 71932) | -0.06 | 1.58 | 1.63 | enough cells to score |
| Exosc2 (GeneID 227715) | -0.69 | 1.47 | 1.21 | enough cells to score |

Sorted by “p65 translocation robust z-score” (lowest first): some entries from above.
| Target gene | p65 translocation robust z-score | nuclear/cytoplasmic p65 ratio, rep 1 | nuclear/cytoplasmic p65 ratio, rep 2 | low cell count flag |
| --- | --- | --- | --- | --- |
| Klk1b24 (GeneID 16617) | -0.57 | 1.41 | 1.41 | enough cells to score |
| Or52b4 (GeneID 259083) | 0.42 | 1.31 | 1.32 | enough cells to score |
| Or4k5 (GeneID 258275) | 1.99 | 1.5 | 1.5 | enough cells to score |

The list goes on.
| Target gene | p65 translocation robust z-score | nuclear/cytoplasmic p65 ratio, rep 1 | nuclear/cytoplasmic p65 ratio, rep 2 | low cell count flag |
| --- | --- | --- | --- | --- |
| Fas (GeneID 14102) | -1.76 (active) | 1.25 | 1.29 | enough cells to score |
| Zc3h7a (GeneID 106205) | -0.24 | 1.4 | 1.2 | enough cells to score |
| Sncb (GeneID 104069) | -0.67 | 1.33 | 0.993 | enough cells to score |
| Selenov (GeneID 280621) | 0.59 | 1.78 | 1.65 | enough cells to score |
| Hes2 (GeneID 15206) | -1.19 | 1.41 | 1.39 | enough cells to score |
| Cln3 (GeneID 12752) | 0.1 | 1.44 | 1.43 | enough cells to score |
| Usp38 (GeneID 74841) | -0.16 | 1.63 | 1.35 | enough cells to score |
| Pax8 (GeneID 18510) | -0.44 | 1.44 | 1.31 | enough cells to score |
| Msantd3 (GeneID 66665) | 2.39 | 1.66 | 1.79 | enough cells to score |
